# Data taken from the supplement of paper PMC10849652.
# The chains behind the UniProt entries cited, without tags or fusion partners. Where a name states a change or a piece, a line headed by the entry shows the natural chain unless it says otherwise.
# UniProt O00560: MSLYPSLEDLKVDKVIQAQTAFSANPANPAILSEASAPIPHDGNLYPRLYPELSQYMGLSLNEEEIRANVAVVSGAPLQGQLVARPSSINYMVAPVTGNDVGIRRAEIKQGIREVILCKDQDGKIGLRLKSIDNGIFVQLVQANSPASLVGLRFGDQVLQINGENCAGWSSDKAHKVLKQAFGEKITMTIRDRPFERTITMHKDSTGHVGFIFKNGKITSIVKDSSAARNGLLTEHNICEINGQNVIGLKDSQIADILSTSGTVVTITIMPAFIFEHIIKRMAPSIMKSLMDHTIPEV
# UniProt Q93073: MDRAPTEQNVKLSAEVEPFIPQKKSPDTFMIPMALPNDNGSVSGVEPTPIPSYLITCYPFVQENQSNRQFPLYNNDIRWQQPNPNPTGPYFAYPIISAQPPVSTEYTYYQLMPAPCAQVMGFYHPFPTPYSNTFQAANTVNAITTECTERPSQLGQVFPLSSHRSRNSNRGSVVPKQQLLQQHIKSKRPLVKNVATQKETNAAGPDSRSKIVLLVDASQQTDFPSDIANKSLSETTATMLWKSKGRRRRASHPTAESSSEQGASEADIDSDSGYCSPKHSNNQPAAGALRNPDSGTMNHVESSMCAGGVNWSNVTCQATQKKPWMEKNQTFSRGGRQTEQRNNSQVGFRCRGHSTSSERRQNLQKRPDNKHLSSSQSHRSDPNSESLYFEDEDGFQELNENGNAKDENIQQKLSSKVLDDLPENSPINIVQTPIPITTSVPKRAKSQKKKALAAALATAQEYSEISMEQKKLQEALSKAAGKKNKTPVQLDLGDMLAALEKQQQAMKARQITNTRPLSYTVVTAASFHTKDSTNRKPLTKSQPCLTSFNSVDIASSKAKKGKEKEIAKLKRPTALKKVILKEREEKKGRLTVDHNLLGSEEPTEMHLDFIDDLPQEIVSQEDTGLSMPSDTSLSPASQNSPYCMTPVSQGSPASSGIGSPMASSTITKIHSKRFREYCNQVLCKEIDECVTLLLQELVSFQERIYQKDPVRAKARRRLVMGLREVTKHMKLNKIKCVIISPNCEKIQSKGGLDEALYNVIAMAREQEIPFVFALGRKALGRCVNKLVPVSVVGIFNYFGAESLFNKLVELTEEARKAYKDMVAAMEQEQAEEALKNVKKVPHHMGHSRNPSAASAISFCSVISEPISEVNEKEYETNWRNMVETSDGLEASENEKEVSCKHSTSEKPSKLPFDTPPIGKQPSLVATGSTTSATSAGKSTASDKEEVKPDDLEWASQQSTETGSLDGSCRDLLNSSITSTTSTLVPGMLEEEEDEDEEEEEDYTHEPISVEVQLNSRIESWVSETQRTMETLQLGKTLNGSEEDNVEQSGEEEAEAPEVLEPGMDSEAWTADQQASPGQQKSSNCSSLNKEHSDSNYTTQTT
# UniProt Q9BW04: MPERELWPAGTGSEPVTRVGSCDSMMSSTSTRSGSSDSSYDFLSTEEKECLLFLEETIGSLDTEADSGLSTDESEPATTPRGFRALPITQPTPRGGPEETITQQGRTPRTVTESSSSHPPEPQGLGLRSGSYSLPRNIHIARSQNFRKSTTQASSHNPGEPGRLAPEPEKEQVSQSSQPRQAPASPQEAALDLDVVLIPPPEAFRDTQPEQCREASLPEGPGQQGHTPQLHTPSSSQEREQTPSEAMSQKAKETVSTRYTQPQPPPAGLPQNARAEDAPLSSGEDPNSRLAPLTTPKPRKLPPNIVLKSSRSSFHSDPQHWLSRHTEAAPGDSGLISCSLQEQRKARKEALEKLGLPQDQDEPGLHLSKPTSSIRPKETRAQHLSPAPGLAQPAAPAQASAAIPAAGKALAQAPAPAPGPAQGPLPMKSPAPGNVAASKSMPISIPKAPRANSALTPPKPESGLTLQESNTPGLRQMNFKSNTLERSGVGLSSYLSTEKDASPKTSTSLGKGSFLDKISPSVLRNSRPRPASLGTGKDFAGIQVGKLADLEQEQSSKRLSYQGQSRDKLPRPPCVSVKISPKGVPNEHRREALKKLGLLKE
# UniProt Q9UQR0: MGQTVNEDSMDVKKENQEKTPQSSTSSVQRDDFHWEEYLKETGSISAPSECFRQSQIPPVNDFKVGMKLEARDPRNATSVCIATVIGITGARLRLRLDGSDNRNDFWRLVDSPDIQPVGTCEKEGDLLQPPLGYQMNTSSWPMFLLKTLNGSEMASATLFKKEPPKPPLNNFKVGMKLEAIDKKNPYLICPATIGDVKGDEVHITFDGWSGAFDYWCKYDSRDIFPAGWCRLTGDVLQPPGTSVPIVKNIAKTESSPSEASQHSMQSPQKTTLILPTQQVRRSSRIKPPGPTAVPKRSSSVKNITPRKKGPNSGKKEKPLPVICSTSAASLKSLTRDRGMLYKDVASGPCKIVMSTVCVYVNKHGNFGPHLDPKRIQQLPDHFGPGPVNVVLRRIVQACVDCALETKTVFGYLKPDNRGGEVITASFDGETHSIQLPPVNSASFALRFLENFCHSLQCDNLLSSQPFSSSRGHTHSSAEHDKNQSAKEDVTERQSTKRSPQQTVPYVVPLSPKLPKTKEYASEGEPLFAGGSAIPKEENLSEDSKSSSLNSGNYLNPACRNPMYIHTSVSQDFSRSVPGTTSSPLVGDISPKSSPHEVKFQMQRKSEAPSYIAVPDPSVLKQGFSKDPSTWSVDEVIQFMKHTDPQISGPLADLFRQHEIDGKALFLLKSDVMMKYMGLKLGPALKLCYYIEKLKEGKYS
# UniProt O75880: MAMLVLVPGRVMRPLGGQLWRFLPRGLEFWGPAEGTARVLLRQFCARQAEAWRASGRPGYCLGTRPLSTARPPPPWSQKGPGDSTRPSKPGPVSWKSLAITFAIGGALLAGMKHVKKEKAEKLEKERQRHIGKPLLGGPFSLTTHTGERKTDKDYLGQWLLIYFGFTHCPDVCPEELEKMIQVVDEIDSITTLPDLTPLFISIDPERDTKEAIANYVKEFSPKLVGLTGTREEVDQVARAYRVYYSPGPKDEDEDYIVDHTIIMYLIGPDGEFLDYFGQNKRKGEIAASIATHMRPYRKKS
# UniProt P67812: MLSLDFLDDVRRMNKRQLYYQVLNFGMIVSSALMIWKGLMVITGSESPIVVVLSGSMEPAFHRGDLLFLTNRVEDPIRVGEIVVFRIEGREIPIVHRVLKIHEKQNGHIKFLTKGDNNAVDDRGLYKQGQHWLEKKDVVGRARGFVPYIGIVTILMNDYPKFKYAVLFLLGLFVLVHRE
# UniProt Q9NSI8: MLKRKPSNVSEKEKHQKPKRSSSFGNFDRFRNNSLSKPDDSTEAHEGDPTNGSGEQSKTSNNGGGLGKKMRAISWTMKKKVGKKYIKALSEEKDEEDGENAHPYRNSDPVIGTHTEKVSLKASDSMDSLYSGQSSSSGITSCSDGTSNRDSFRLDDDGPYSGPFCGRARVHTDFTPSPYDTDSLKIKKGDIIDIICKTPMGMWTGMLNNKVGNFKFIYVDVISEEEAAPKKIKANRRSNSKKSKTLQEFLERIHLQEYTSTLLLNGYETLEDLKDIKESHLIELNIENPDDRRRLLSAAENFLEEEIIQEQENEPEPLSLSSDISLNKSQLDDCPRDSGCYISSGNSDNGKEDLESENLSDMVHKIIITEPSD
# UniProt P62341, whole entry, looked up: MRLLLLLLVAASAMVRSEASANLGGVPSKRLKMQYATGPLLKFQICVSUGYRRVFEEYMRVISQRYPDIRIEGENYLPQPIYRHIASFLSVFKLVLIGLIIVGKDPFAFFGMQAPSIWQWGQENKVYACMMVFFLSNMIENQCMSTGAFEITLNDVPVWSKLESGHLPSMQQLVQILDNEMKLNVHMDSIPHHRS
# UniProt P60059: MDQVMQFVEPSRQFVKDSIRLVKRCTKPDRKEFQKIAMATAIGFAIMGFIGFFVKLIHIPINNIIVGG
# UniProt Q9UBE0: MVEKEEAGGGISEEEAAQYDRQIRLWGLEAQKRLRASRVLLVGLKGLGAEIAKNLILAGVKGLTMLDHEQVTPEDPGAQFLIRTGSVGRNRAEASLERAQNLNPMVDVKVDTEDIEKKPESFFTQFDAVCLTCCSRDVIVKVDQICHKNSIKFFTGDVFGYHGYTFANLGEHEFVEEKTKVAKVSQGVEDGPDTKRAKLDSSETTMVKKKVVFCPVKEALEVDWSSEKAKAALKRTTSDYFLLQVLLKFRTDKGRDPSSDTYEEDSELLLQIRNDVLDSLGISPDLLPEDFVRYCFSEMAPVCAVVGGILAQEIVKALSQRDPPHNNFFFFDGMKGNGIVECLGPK
# UniProt Q9Y3Z3: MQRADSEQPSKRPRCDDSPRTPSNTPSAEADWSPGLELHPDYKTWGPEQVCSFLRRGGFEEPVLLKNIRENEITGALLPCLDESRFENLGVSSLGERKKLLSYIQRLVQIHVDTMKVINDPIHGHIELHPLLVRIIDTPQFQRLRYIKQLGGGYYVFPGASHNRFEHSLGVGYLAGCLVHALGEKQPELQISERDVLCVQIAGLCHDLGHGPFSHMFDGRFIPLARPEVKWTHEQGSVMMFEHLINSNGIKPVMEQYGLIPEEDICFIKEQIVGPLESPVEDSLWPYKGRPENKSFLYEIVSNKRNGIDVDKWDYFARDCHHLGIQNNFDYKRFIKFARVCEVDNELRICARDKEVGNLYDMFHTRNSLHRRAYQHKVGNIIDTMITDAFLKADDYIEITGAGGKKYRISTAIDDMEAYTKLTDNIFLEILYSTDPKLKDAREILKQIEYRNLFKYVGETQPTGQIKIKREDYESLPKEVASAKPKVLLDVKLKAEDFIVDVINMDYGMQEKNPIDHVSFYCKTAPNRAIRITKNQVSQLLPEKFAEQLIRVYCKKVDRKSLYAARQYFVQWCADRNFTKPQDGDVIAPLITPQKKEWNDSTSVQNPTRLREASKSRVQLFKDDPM
# UniProt Q9UBV2: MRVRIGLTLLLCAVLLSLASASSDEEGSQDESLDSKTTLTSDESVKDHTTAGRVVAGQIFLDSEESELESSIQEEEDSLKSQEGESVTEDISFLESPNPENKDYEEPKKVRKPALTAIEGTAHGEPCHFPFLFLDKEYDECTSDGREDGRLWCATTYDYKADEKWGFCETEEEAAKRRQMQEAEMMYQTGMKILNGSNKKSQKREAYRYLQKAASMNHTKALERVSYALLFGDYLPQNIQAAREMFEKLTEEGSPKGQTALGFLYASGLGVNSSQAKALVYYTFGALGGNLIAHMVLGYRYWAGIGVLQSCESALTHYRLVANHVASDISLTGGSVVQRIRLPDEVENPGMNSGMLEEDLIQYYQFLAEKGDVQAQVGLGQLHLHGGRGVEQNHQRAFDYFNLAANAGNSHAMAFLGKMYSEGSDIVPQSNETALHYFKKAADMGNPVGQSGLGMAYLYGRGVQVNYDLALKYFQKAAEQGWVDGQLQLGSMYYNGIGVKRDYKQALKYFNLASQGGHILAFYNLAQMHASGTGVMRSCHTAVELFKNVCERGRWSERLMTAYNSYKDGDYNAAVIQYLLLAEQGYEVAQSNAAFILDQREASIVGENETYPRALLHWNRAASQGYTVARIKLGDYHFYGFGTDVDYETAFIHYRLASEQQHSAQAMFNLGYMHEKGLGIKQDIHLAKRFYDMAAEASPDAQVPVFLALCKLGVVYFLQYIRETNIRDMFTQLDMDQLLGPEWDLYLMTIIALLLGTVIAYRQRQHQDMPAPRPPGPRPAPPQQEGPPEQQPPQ
# UniProt O43290: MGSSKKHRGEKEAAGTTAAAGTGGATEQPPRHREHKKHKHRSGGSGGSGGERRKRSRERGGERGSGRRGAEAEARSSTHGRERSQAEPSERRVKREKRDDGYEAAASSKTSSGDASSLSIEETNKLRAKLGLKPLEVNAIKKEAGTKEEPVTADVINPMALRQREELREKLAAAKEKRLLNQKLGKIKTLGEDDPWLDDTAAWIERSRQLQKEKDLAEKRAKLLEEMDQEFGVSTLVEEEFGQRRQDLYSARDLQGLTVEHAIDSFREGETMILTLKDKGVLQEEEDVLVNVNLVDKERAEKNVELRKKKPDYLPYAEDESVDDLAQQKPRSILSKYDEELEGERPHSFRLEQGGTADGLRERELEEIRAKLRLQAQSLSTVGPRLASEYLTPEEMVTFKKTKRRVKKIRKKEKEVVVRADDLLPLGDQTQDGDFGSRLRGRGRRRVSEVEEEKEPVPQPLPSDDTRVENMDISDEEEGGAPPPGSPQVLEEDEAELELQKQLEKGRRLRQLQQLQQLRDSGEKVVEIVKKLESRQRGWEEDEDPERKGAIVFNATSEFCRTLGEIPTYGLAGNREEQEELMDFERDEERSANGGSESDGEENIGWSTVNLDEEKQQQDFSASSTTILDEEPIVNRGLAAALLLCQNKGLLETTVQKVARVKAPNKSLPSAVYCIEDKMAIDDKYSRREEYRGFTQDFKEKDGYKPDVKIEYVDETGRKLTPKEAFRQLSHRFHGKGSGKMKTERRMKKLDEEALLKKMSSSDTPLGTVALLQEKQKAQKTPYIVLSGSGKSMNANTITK
# This is one part of the list.
# Legend:
# Assay in all cases: log2 fold change, soluble protein after heating vs DMSO (PISA); higher = thermal stabilisation; K562 lysate, 10 uM; active = over 0.2 and 3.5 SD of the protein, either way, in both replicates (recomputed)
# [1] = compound: CS(=O)(=O)CCNCc1ccc(-c2ccc3ncnc(Nc4ccc(OCc5cccc(F)c5)c(Cl)c4)c3c2)o1 [lapatinib]
# In short: (§1)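 Dounce homogenisation of K562 pellets in PBS pH 7.4 with 1 mM MgCl2 produced a crude extract, used at 1 mg/mL protein. Exposure to 10 μM compound lasted 30 min, and aliquots were then heated for 3 min across 48°C-58°C, pooled and brought to 0.5% NP-40 at 4°C. The supernatant after 21,000xg for 90 min was quantified by TMTpro 16plex LC-MS/MS with channel sums equalised. Duplicate values are given as log-two fold change in thermal stability relative to solvent controls.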
# [2] = compound: CS(=O)(=O)N1CCN(Cc2cc3nc(-c4cccc5[nH]ncc45)nc(N4CCOCC4)c3s2)CC1 [pictilisib]
# In short: as §1
# [3] = compound: C[C@@H](Oc1cc(-c2cnn(C3CCNCC3)c2)cnc1N)c1c(Cl)ccc(F)c1Cl [crizotinib]
# In short: as §1
# [4] = compound: C[C@H](C1=CC=C(C=C1)C(=O)NC2=C3C=CNC3=NC=C2)N
# In short: as §1
# [5] = compound: C[C@H](Nc1ncnc2nc[nH]c12)c1cc2cccc(Cl)c2c(=O)n1-c1ccccc1 [duvelisib]
# In short: as §1
# [6] = compound: Cc1cc(Nc2cc(CN3CCOCC3)c3nc(C)c(Cc4ccc(Cl)cc4F)n3n2)n[nH]1 [gandotinib]
# In short: as §1
# [7] = compound: Cc1cc(Nc2cc(N3CCN(C)CC3)nc(Sc3ccc(NC(=O)C4CC4)cc3)n2)n[nH]1 [tozasertib]
# In short: as §1
# [8] = compound: Cc1ccc(-n2nc(C(C)(C)C)cc2NC(=O)Nc2ccc(OCCN3CCOCC3)c3ccccc23)cc1 [doramapimod]
# In short: as §1
# [9] = compound: Cc1ccc(NC(=O)c2ccc(CN3CC[C@H](N(C)C)C3)c(C(F)(F)F)c2)cc1Nc1nccc(-c2cncnc2)n1 [bafetinib]
# In short: as §1
# [10] = compound: Cc1cccc(CC(=O)N2CCc3c2ccc(-c2cn(C)c4ncnc(N)c24)c3F)n1
# In short: as §1
# [11] = compound: Cc1cn(-c2cc(NC(=O)c3ccc(C)c(Nc4nccc(-c5cccnc5)n4)c3)cc(C(F)(F)F)c2)cn1 [nilotinib]
# In short: as §1
# [12] = compound: Cc1nc(Nc2n[nH]c3c2CN(C(=O)N[C@H](CN(C)C)c2ccccc2)C3(C)C)c2sccc2n1
# In short: as §1
# [13] = compound: Cc1nc(Nc2ncc(C(=O)Nc3c(C)cccc3Cl)s2)cc(N2CCN(CCO)CC2)n1 [dasatinib]
# In short: as §1
# [14] = compound: Cc1ncc(-c2ccnc(Nc3ccc(S(C)(=O)=O)cc3)n2)n1C(C)C
# In short: as §1
# [15] = compound: Cn1cc(-c2ccc3c(c2)CCN3C(=O)Cc2cccc(C(F)(F)F)c2)c2c(N)ncnc21
# In short: as §1
# [16] = compound: Cn1cc(CNCC2CCN(c3ncc(C(=O)NO)cn3)CC2)c2ccccc21 [quisinostat]
# In short: as §1
# [17] = compound: Cn1cncc1[C@@](N)(c1ccc(Cl)cc1)c1ccc2c(c1)c(-c1cccc(Cl)c1)cc(=O)n2C [tipifarnib]
# In short: as §1
# [18] = compound: NC(=O)Nc1cc(-c2cccc(F)c2)sc1C(=O)N[C@H]1CCCNC1
# In short: as §1
# [19] = compound: NC(=O)c1cnc(N[C@@H]2CCCC[C@@H]2N)nc1Nc1cccc(-n2nccn2)c1
# In short: as §1
# [20] = compound: NC1(c2ccc(-c3nc4ccn5c(=O)[nH]nc5c4cc3-c3ccccc3)cc2)CCC1
# In short: as §1
Target,log2 fold change [1],log2 fold change [2],log2 fold change [3],log2 fold change [4],log2 fold change [5],log2 fold change [6],log2 fold change [7],log2 fold change [8],log2 fold change [9],log2 fold change [10],log2 fold change [11],log2 fold change [12],log2 fold change [13],log2 fold change [14],log2 fold change [15],log2 fold change [16],log2 fold change [17],log2 fold change [18],log2 fold change [19],log2 fold change [20]
SDCBP (UniProt O00560),inactive: -0.042,inactive: -0.033,inactive: 0,inactive: 0.019,inactive: -0.015,inactive: 0.01,inactive: -0.019,inactive: 0.03,inactive: -0.002,inactive: 0.011,inactive: 0.039,inactive: -0.02,inactive: 0.029,inactive: 0.064,inactive: -0.097,inactive: -0.018,inactive: 0.004,inactive: 0.022,inactive: -0.002,inactive: 0.001
SECISBP2L (UniProt Q93073),inactive: -0.034,inactive: 0.036,inactive: -0.08,inactive: -0.084,inactive: -0.044,inactive: 0.002,inactive: -0.016,inactive: 0.047,inactive: 0.01,inactive: -0.038,inactive: 0.001,inactive: 0.078,inactive: -0.106,inactive: 0.011,inactive: 0.012,inactive: -0.198,inactive: -0.156,inactive: 0.026,inactive: 0.057,inactive: -0.069
SARG (UniProt Q9BW04),inactive: -0.025,inactive: -0.002,inactive: 0.028,inactive: 0.006,inactive: -0.025,inactive: 0.115,inactive: -0.072,inactive: 0.045,inactive: -0.005,inactive: -0.062,inactive: -0.025,inactive: 0.016,inactive: 0.013,inactive: -0.008,inactive: -0.035,inactive: 0.003,inactive: 0,inactive: -0.044,inactive: -0.003,inactive: -0.012
SEC63 (UniProt Q9UGP8),inactive: -0.006,inactive: -0.003,inactive: 0.017,inactive: -0.062,inactive: 0.017,inactive: 0.041,inactive: -0.032,inactive: -0.019,inactive: 0.004,inactive: 0.042,inactive: -0.01,inactive: -0.011,inactive: 0.021,inactive: -0.026,inactive: -0.004,inactive: 0.026,inactive: -0.018,inactive: -0.009,inactive: 0.039,inactive: 0.006
SCML2 (UniProt Q9UQR0),inactive: 0.035,inactive: -0.027,inactive: -0.022,inactive: 0.034,inactive: 0.006,inactive: -0.045,inactive: 0.029,inactive: 0,inactive: -0.017,inactive: -0.014,inactive: 0.042,inactive: 0.004,inactive: -0.014,inactive: -0.06,inactive: 0.027,inactive: 0.007,inactive: 0.065,inactive: 0.048,inactive: 0.012,inactive: -0.022
SCO1 (UniProt O75880),inactive: 0.021,inactive: -0.046,inactive: -0.046,inactive: -0.022,inactive: -0.014,inactive: 0.047,inactive: 0.01,inactive: 0.026,inactive: 0.048,inactive: 0.073,inactive: 0.046,inactive: 0.029,inactive: 0.001,inactive: -0.095,inactive: 0,inactive: -0.13,inactive: -0.108,inactive: -0.033,inactive: 0.029,inactive: 0.001
SEC11A (UniProt P67812),inactive: -0.039,inactive: -0.017,inactive: -0.031,inactive: 0,inactive: 0.035,inactive: -0.032,inactive: 0.031,inactive: 0.057,inactive: -0.078,inactive: 0.064,inactive: -0.021,inactive: 0.004,inactive: -0.052,inactive: -0.002,inactive: -0.047,inactive: -0.063,inactive: -0.072,inactive: 0.042,inactive: 0.011,inactive: -0.063
SAMSN1 (UniProt Q9NSI8),inactive: 0.002,inactive: 0.014,inactive: -0.004,inactive: -0.034,inactive: 0.002,inactive: 0.048,inactive: 0.016,inactive: 0.024,inactive: -0.025,inactive: 0.057,inactive: -0.021,inactive: -0.008,inactive: -0.007,inactive: -0.021,inactive: 0.009,inactive: -0.058,inactive: 0.027,inactive: -0.024,inactive: 0.006,inactive: 0.016
SELENOT (UniProt P62341),inactive: 0.016,inactive: -0.216,inactive: 0.014,inactive: -0.019,inactive: 0.031,inactive: 0.071,inactive: 0.022,inactive: -0.018,inactive: -0.195,inactive: 0.029,inactive: 0.017,inactive: 0.064,inactive: 0.212,inactive: 0.021,inactive: 0.148,inactive: 0.048,inactive: 0.011,inactive: -0.012,inactive: 0.013,inactive: -0.126
SEC61G (UniProt P60059),inactive: -0.094,inactive: 0.139,inactive: 0.209,inactive: -0.331,inactive: 0.105,active: 0.46,inactive: -0.168,inactive: 0.098,inactive: -0.192,inactive: 0.338,inactive: -0.007,inactive: -0.061,inactive: 0,inactive: 0.089,inactive: -0.033,inactive: -0.045,inactive: 0.134,inactive: -0.01,inactive: 0.023,inactive: 0.053
SAE1 (UniProt Q9UBE0),inactive: -0.017,inactive: 0.001,inactive: 0.026,inactive: 0.007,inactive: -0.01,inactive: -0.042,inactive: -0.015,inactive: -0.015,inactive: 0.02,inactive: -0.017,inactive: 0.012,inactive: 0.022,inactive: 0.002,inactive: 0.022,inactive: 0.013,inactive: 0.029,inactive: -0.009,inactive: -0.009,inactive: 0.002,inactive: -0.013
SAMHD1 (UniProt Q9Y3Z3),inactive: 0.02,inactive: -0.071,inactive: -0.033,inactive: -0.038,inactive: 0.013,inactive: -0.029,inactive: 0.032,inactive: -0.005,inactive: -0.071,inactive: 0.028,inactive: -0.006,inactive: 0.008,inactive: -0.026,inactive: 0.013,inactive: 0.066,inactive: -0.02,inactive: 0.03,inactive: 0.054,inactive: 0.046,inactive: 0.004
SEL1L (UniProt Q9UBV2),inactive: -0.042,inactive: -0.052,inactive: 0.014,inactive: 0.031,inactive: -0.046,inactive: -0.036,inactive: -0.027,inactive: 0.006,inactive: -0.048,inactive: 0.029,inactive: -0.069,inactive: 0.016,inactive: -0.032,inactive: -0.039,inactive: 0.006,inactive: -0.003,inactive: -0.108,inactive: 0.014,inactive: 0.007,inactive: 0.01
SART1 (UniProt O43290),inactive: 0.014,inactive: 0.015,inactive: 0,inactive: -0.024,inactive: 0,inactive: 0.025,inactive: -0.016,inactive: 0.02,inactive: -0.046,inactive: 0.029,inactive: -0.019,inactive: 0.005,inactive: 0.019,inactive: 0.008,inactive: -0.017,inactive: -0.042,inactive: -0.01,inactive: -0.016,inactive: 0.001,inactive: -0.003
SEC62 (UniProt Q99442),inactive: 0.028,inactive: -0.029,inactive: 0.011,inactive: 0.231,inactive: 0,inactive: -0.07,inactive: -0.024,inactive: 0.002,inactive: 0.029,inactive: -0.072,inactive: 0.013,inactive: -0.032,inactive: 0.01,inactive: -0.038,inactive: -0.011,inactive: 0.083,inactive: -0.055,inactive: -0.045,inactive: -0.007,inactive: -0.01
"SART3, A0A499FI31",inactive: -0.004,inactive: 0.034,inactive: -0.03,inactive: 0.04,inactive: 0.007,inactive: -0.053,inactive: 0.002,inactive: -0.026,inactive: -0.019,inactive: -0.022,inactive: -0.019,inactive: 0.006,inactive: 0.015,inactive: -0.002,inactive: 0.006,inactive: -0.027,inactive: -0.003,inactive: 0.013,inactive: -0.026,inactive: 0.012

# Complete entries from above. Values in the order: log2 fold change [1]	log2 fold change [2]	log2 fold change [3]	log2 fold change [4]	log2 fold change [5]	log2 fold change [6]	log2 fold change [7]	log2 fold change [8]	log2 fold change [9]	log2 fold change [10]	log2 fold change [11]	log2 fold change [12]	log2 fold change [13]	log2 fold change [14]	log2 fold change [15]	log2 fold change [16]	log2 fold change [17]	log2 fold change [18]	log2 fold change [19]	log2 fold change [20]
# SEL1L (UniProt Q9UBV2) as listed: inactive: -0.042	inactive: -0.052	inactive: 0.014	inactive: 0.031	inactive: -0.046	inactive: -0.036	inactive: -0.027	inactive: 0.006	inactive: -0.048	inactive: 0.029	inactive: -0.069	inactive: 0.016	inactive: -0.032	inactive: -0.039	inactive: 0.006	inactive: -0.003	inactive: -0.108	inactive: 0.014	inactive: 0.007	inactive: 0.01
# SARG (UniProt Q9BW04) as listed: inactive: -0.025	inactive: -0.002	inactive: 0.028	inactive: 0.006	inactive: -0.025	inactive: 0.115	inactive: -0.072	inactive: 0.045	inactive: -0.005	inactive: -0.062	inactive: -0.025	inactive: 0.016	inactive: 0.013	inactive: -0.008	inactive: -0.035	inactive: 0.003	inactive: 0	inactive: -0.044	inactive: -0.003	inactive: -0.012
